In PubChem BioAssay AID248 (DTP/NCI, 2004):
The list is a part of this screen's results and no random one: it is rich in T/C values a quarter to a half above the control, in often repeated tests (any T/C) and in doses without a T/C. Other doses and runs of a compound stand elsewhere. T/C is the treated group as % of the vehicle group. Some entries give survivors of the animals treated and no T/C: the source files T/C as zero there, which appears to mark a toxic dose or a test without result, not a measured value. Some doses without a T/C left all or most animals alive at the check, yet need not have been tolerated: the source hardly ever lists a survival T/C far under the control, and the zero likely stands for such cases as well. Survivors were counted at the toxicity check, usually on the fifth day, unless a day is given; later deaths do not show. Schedule codes are those of the source, read here as Q, the interval in days (D) or hours (H), X, the number of doses. Some doses were run more than once; the values are given in rising order. Some schedules carry Z or #; the key to these is not given. For survival time, this PubChem deposit counts one and a half times the control or more as active, and values a quarter to a half above the control carry no call in these data; other NCI protocols may use other cut-offs. Some T/C values carry the count of animals alive at the toxicity check (mostly the fifth day); where none is given, no animal had died by that day.

Tested on: L1210 leukemia ip in BDF1 mice, survival T/C
Test: NCI In Vivo Anticancer Drug Screen. Data for tumor model L1210 Leukemia (intraperitoneal) in B6D2F1 (BDF1) mice
Details: T/C endpoint: mean survival time, higher T/C = longer survival
[1] = dose: 100.0 mg/kg/injection, schedule: Q04DX003 (ip), vehicle: Klucel (hydroxypropylcellulose) (HPC)
[2] = dose: 200.0 mg/kg/injection, schedule: Q04DX003 (ip), vehicle: Klucel (hydroxypropylcellulose) (HPC)
[3] = dose: 400.0 mg/kg/injection, schedule: Q04DX003 (ip), vehicle: Klucel (hydroxypropylcellulose) (HPC)
[4] = dose: 200.0 mg/kg/injection, schedule: Q01DX001 (ip), vehicle: saline
[5] = dose: 400.0 mg/kg/injection, schedule: Q01DX001 (ip), vehicle: saline
[6] = dose: 200.0 mg/kg/injection, schedule: Q01DX009 (ip), vehicle: saline with Tween-80
[7] = dose: 400.0 mg/kg/injection, schedule: Q04DX003 (ip), vehicle: saline with Tween-80
[8] = dose: 400.0 mg/kg/injection, schedule: Q01DX001 (ip), vehicle: saline with Tween-80
[9] = dose: 400.0 mg/kg/injection, schedule: Q04DX003 (ip), vehicle: saline
[10] = dose: 100.0 mg/kg/injection, schedule: Q04DX003 (ip), vehicle: saline with Tween-80
[11] = dose: 200.0 mg/kg/injection, schedule: Q04DX003 (ip), vehicle: saline with Tween-80
[12] = dose: 200.0 mg/kg/injection, schedule: Q04DX003 (ip), vehicle: saline
[13] = dose: 400.0 mg/kg/injection, schedule: Q01DX001 (ip), vehicle: Klucel (hydroxypropylcellulose) (HPC)

For `CS(=O)(=O)OCCCCCCCCOS(C)(=O)=O`, the T/C (dose: 16.0 mg/kg/injection, schedule: Q01DX009 (ip), vehicle: Klucel (hydroxypropylcellulose) (HPC)) was 134 % of control [5 of 6 alive], the T/C (dose: 25.0 mg/kg/injection, schedule: Q01DX009 (ip), vehicle: Klucel (hydroxypropylcellulose) (HPC)) was 142 % of control and the survivor count [1] was 6 of 6. The survivor count [2] was 1 of 6 and the survivor count [3] was 0 of 6.
`Cc1ccc(CCl)cc1` was tested, and the survivor count (dose: 400.0 mg/kg/injection, schedule: Q01DX009 (ip), vehicle: saline with Tween-80) was 0 of 6.
`NCCCCC(=O)NC(CCCCNC(=O)OCc1ccccc1)C(=O)NCCCCC(=O)NC(CCCCNC(=O)OCc1ccccc1)C(=O)NCCCCC(=O)NC(CCCCNC(=O)OCc1ccccc1)C(=O)NCCCCC(=O)NC(CCCCNC(=O)OCc1ccccc1)C(=O)NCCCCC(=O)NC(CCCCNC(=O)OCc1ccccc1)C(=O)O` (centres undefined) was tested, and the survivor count [4] was 0 of 6 and the survivor count [5] was 0 of 6.
For `Cc1cc(=O)n(CC(=O)O)c2ccccc12`, the survivor count [2] was 6 of 6.
For `FC(F)(F)C(F)(F)C(F)(F)c1nc2nc(Cl)c(Cl)nc2[nH]1`, the survivor count (dose: 100.0 mg/kg/injection, schedule: Q01DX009 (ip), vehicle: saline with Tween-80) was 2 of 6 and 3 of 6, the survivor count [6] was 0 of 6 and the survivor count [7] was 1 of 6.
`c1ccc(C(c2ccccc2)c2ccc(C(c3ccccc3)(c3ccccc3)c3ccccc3)cc2)cc1` was tested, and the survivor count (dose: 175.0 mg/kg/injection, schedule: Q04DX003 (ip), vehicle: Klucel (hydroxypropylcellulose) (HPC)) was 6 of 6 and the survivor count (dose: 350.0 mg/kg/injection, schedule: Q04DX003 (ip), vehicle: Klucel (hydroxypropylcellulose) (HPC)) was 6 of 6.
In the case of `O=C1C2=C(C(=O)c3ccccc31)C1C=CC2CC1`, the survivor count (dose: 200.0 mg/kg/injection, schedule: Q01DX001 (ip), vehicle: carboxymethylcellulose (CMC)) is reported as 1 of 4 and the survivor count (dose: 400.0 mg/kg/injection, schedule: Q01DX001 (ip), vehicle: carboxymethylcellulose (CMC)) is reported as 0 of 4.
In the case of `CC1OC(O[C@@H]2C=C3CC[C@@H]4[C@H](CC[C@]5(C)[C@@H](c6ccc(=O)oc6)CC[C@]45O)[C@@]3(C)CC2)C(O)C(O)C1O` (some centres undefined), the survivor count (dose: 20.0 mg/kg/injection, schedule: Q01DX001 (ip), vehicle: saline) is reported as 3 of 6 and the survivor count (dose: 40.0 mg/kg/injection, schedule: Q01DX001 (ip), vehicle: saline) is reported as 0 of 6.
For `S=C1OC(c2ccccc2)(c2ccccc2)c2ccsc21`, the survivor count (dose: 100.0 mg/kg/injection, schedule: Q01DX001 (ip), vehicle: saline with Tween-80) was 3 of 3, the survivor count (dose: 200.0 mg/kg/injection, schedule: Q01DX001 (ip), vehicle: saline with Tween-80) was 2 of 3 and the survivor count [8] was 0 of 3.
For `Nc1nc(N)c(N)c(SCC(=O)C(=O)O)n1`, the survivor count [8] was 3 of 6.
With `CN(C)CCC(C)(N)c1cccc2ccccc12` (centres undefined) the survivor count [9] was 0 of 6.
In the case of `COc1ccc(C(=O)Nc2ccccc2)cc1NC(=S)Nc1ccccc1`, the survivor count (dose: 400.0 mg/kg/injection, schedule: Q04DX002 (ip), vehicle: Klucel (hydroxypropylcellulose) (HPC)) is reported as 3 of 3.
`c1ccc([C@H]2O[C@@H]2c2ccccc2)cc1` was tested, and the survivor count [10] was 2 of 6, the survivor count [11] was 0 of 6 and the survivor count [7] was 0 of 6.
With `NC1=NC(CNC(=O)c2cccc([N+](=O)[O-])c2)N(c2cccc(Cl)c2)C(N)=N1` (centres undefined) the survivor count (dose: 100.0 mg/kg/injection, schedule: Q01DX Z (ip), vehicle: methylcellulose (MC)) was 3 of 6, the survivor count (dose: 200.0 mg/kg/injection, schedule: Q01DX Z (ip), vehicle: methylcellulose (MC)) was 2 of 6 and the survivor count (dose: 400.0 mg/kg/injection, schedule: Q01DX Z (ip), vehicle: methylcellulose (MC)) was 6 of 6.
In the case of `CNCC/C=C1\c2ccccc2CCSc2ccccc21`, the survivor count [12] is reported as 0 of 6 and the survivor count [9] is reported as 0 of 6.
`O=[N+]([O-])c1cc(Cl)ccc1S(=O)(=O)c1ccccc1` was tested, and the survivor count (dose: 100.0 mg/kg/injection, schedule: Q01DX009 (ip), vehicle: Klucel (hydroxypropylcellulose) (HPC)) was 6 of 6, the survivor count (dose: 200.0 mg/kg/injection, schedule: Q01DX009 (ip), vehicle: Klucel (hydroxypropylcellulose) (HPC)) was 6 of 6 and the survivor count (dose: 400.0 mg/kg/injection, schedule: Q01DX009 (ip), vehicle: Klucel (hydroxypropylcellulose) (HPC)) was 6 of 6.
`COC1=CCC23C(=O)C=CC(=O)C2(C1)C(=O)c1ccccc1C3=O` (centres undefined) was tested, and the survivor count (dose: 25.0 mg/kg/injection, schedule: Q01DX005 (ip), vehicle: saline with Tween-80) was 0 of 4.
With `O=C(C(=O)N1CC2OC2C1)N1CC2OC2C1` (centres undefined) the survivor count (dose: 400.0 mg/kg/injection, schedule: Q04DX002 (ip), vehicle: saline with Tween-80) was 0 of 3.
`CC1CN1P(=O)(Oc1cccc2ccccc12)N1CC1C` (centres undefined) was tested, and the T/C [5] was 125 % of control [3 of 4 alive].
With `C#CC(OC(=O)NC1CCCCC1)(c1ccccc1)c1ccccc1` the T/C (dose: 25.0 mg/kg/injection, schedule: Q01DX009 (ip), vehicle: saline with Tween-80) was 128 % of control, the survivor count (dose: 33.0 mg/kg/injection, schedule: Q01DX009 (ip), vehicle: saline with Tween-80) was 6 of 6 and the T/C (dose: 50.0 mg/kg/injection, schedule: Q01DX009 (ip), vehicle: saline sonified) was 129 % of control. The survivor count (dose: 50.0 mg/kg/injection, schedule: Q01DX009 (ip), vehicle: saline with Tween-80) was 6 of 6, the T/C (dose: 50.0 mg/kg/injection, schedule: Q01DX009 (ip), vehicle: saline) was 128 % of control and the survivor count (dose: 75.0 mg/kg/injection, schedule: Q01DX009 (ip), vehicle: saline with Tween-80) was 6 of 6. The T/C (dose: 100.0 mg/kg/injection, schedule: Q01DX009 (ip), vehicle: saline) was 144 % of control, the survivor count (dose: 200.0 mg/kg/injection, schedule: Q01DX009 (ip), vehicle: saline sonified) was 3 of 6 and the survivor count (dose: 200.0 mg/kg/injection, schedule: Q01DX009 (ip), vehicle: saline) was 2 of 6 and 6 of 6. For the same compound, the T/C (dose: 200.0 mg/kg/injection, schedule: Q04DX003 (ip), vehicle: saline sonified) was 148 % of control and the survivor count (dose: 400.0 mg/kg/injection, schedule: Q01DX009 (ip), vehicle: saline) was 1 of 6.
In the case of `NC(=S)N/N=C/c1ccc(OC(=O)COc2ccccc2Cl)cn1`, the T/C [11] is reported as 135 % of control and the survivor count (dose: 600.0 mg/kg/injection, schedule: Q04DX003 (ip), vehicle: saline with Tween-80) is reported as 6 of 6.
`CCC/C=C/CCN1CC1` was tested, and the survivor count (dose: 80.0 mg/kg/injection, schedule: Q01DX001 (ip), vehicle: saline) was 1 of 6, the survivor count [4] was 4 of 6 and the survivor count [5] was 0 of 6.
In the case of `O=NN(CCCl)C(=O)N(C1CCCCC1)C1CCCCC1`, the T/C (dose: 266.0 mg/kg/injection, schedule: Q01DX009 (ip), vehicle: carboxymethylcellulose (CMC)) is reported as 130 % of control.
With `CCCCCCCCCCCCCCCC(=O)Nc1cccc2c[n+](CC(=O)c3ccc(NC(=O)CCC(=O)OC)cc3)ccc12` the survivor count [10] was 6 of 6, the survivor count [6] was 6 of 6 and the survivor count [11] was 6 of 6.
For `C=CCNC(=S)Nc1cccc2ccccc12`, the survivor count [1] was 6 of 6, the survivor count [2] was 4 of 6 and the survivor count [3] was 0 of 6.
In the case of `O=C(Nc1ccc(C(=O)O)cc1)Nc1cccc(Cl)c1`, the survivor count (dose: 200.0 mg/kg/injection, schedule: Q04DX002 (ip), vehicle: saline) is reported as 1 of 3 and the survivor count (dose: 400.0 mg/kg/injection, schedule: Q04DX002 (ip), vehicle: saline) is reported as 0 of 3.
With `CCCCCCCCCCCCNC(=O)C[n+]1cccc(C(N)=O)c1` the survivor count [12] was 3 of 6 and the survivor count [9] was 0 of 6.
With `Cc1ncnc(N)c1CCC(C)C` the survivor count (dose: 100.0 mg/kg/injection, schedule: Q01DX001 (ip), vehicle: Klucel (hydroxypropylcellulose) (HPC)) was 0 of 6, the survivor count (dose: 200.0 mg/kg/injection, schedule: Q01DX001 (ip), vehicle: Klucel (hydroxypropylcellulose) (HPC)) was 0 of 6 and the survivor count [13] was 0 of 6.
In the case of `COc1ccc(C(=O)c2ccc([N+](=O)[O-])cc2)c(OC)c1`, the survivor count [13] is reported as 3 of 3.
